# Data as given in PubChem BioAssay AID720505 (Drosophila RNAi Screening Center, 2013).
# Assay: 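Fly regulators or components of the CRAC channel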 (primary screen)
# Cell system: Drosophila S2R+ cells
# Reagent: long dsRNA against Drosophila genes
# Treatment: thapsigargin (2 µM) in calcium-free buffer to empty internal stores, then 2 mM calcium added back
# Detection: 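Fluo-4 signal in 384-well plates read on a FLIPR after thapsigargin (2 µM, calcium-free) store depletion and 2 mM calcium add-back; unnormalised mean endpoint per well; screen run twice, selected wells retested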
# Direction: calcium signal: higher = more calcium entry after store depletion
# Call rule: 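About 1500 genes called as lowering calcium entry, by varying amounts, judged against per-plate control wells with STIM1 as positive and Rho1 as negative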
# Meaning of the calls: active = called as lowering calcium entry; inactive = not called
# The screen tested about 20,000 reagents; below is an unselected part of those with a known target gene and a result. In the full data, about 2,100 (10%) got an active call. 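Raw plate signals without normalisation; calls rest on control-based scores that were not deposited; replicate 2 separates called from uncalled poorly.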 Not given: the amount of reagent, the time to read-out.
gene knocked down,dsRNA,"calcium signal, replicate 1","calcium signal, replicate 2",outcome
Ggamma30A,DRSC02715,161,172,inactive
Ggamma30A,DRSC03331,155,174,inactive
CG14110,DRSC10113,109,119,inactive
CG6380,DRSC02950,132,103,inactive
BOD1,DRSC15824,114,169,inactive
Arr1,DRSC01867,142,94.5,inactive
CG42809,DRSC02532,106,92,inactive
CG5504,DRSC04701,201,91,inactive
Ttc7,DRSC04836,199,84.1,inactive
CG34231,DRSC05323,59.8,109,inactive
zda,DRSC06936,77.9,73.8,active
Acp65Aa,DRSC09663,114,94.9,inactive
ChAT,DRSC16609,167,145,inactive
ChAT,DRSC22755,140,197,inactive
CG10132,DRSC02013,126,105,inactive
obst-H,DRSC10935,71.2,105,inactive
obst-H,DRSC10940,67.2,93.5,inactive
CG14362,DRSC14824,117,122,inactive
CG7460,DRSC10850,101,139,inactive
ND-23,DRSC15526,87.3,189,inactive
mRpS34,DRSC09918,87,151,inactive
CG3164,DRSC00572,145,106,inactive
mats,DRSC14702,162,158,inactive
AP-2mu,DRSC14090,229,213,inactive
CG18666,DRSC02694,172,136,inactive
Mkp3,DRSC10084,84.1,70.9,inactive
Mkp3,DRSC10085,72.6,140,inactive
CG13428,DRSC06390,135,119,inactive
Roc2,DRSC07313,90.3,175,inactive
Lamtor5,DRSC18491,147,190,inactive
CG10681,DRSC09777,123,79,inactive
CG10681,DRSC21484,153,106,inactive
Pcl,DRSC07503,154,109,inactive
Lrt,DRSC06045,69.1,105,inactive
